40 compounds from PubChem BioAssay AID2810 (NMMLSC, 2010) can be followed below.

This assay can be described thus: modulators of CD8 T cell-vesicle binding, confirmation, cherry-picked primary hits, two concentrations (AID 2810).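 For all read-outs here: lower values mean blocking of vesicle binding.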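 For percent response (vesicle binding): ratio of mean FL2 vesicle stain of CD8+ cells to that row's control.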 The note with it: 2C CD8+ T cell-vesicle binding, flow cytometry; for double positive events: CD8+/vesicle+ events.
The mark [1] stands for this setting: at 15.4 µM, stronger effect = lower value.

The structures appear in SMILES notation. Some of the results follow. Further columns of the screen follow, without active or inactive calls.

For `CC1CCCCC1NC(=O)CSc1nnc(N)s1` (stereo not given), for the setting “at 7.7 µM”, the double positive events amounted to 32.6% and the percent response (vesicle binding) worked out at 214%. The same compound returned a double positive events under setting [1] of 30.5%.

With `Cc1ccc(Cn2c([N+](=O)[O-])cnc2C)cc1`, the double positive events came to 10.7% (at 7.7 µM) and 31.2% under setting [1]. This compound registered a percent response (vesicle binding) (at 7.7 µM) of 283%.

Take `Cc1ccc2c(Cl)cc(Cl)c(OCC(=O)OCC(=O)Nc3ccc(C#N)cc3)c2n1`: for the setting “at 7.7 µM”, the double positive events was 31.8% and the percent response (vesicle binding) came out at 462%. Under setting [1], this compound gave a double positive events of 1.1%.

With `Cc1cc([N+](=O)[O-])cc2c1NC(=O)C2(O)N1CCCCCC1` (stereo not given), the double positive events stood at 21.7% (at 7.7 µM) and 15% under setting [1]. Besides, for the setting “at 7.7 µM”, the percent response (vesicle binding) amounted to 132%.

On to `CC(C)(C)Nc1nc2nonc2nc1NC(C)(C)C`, for which the double positive events is, setting by setting: (at 7.7 µM) 8%; under setting [1], 6.1%. The compound also had a percent response (vesicle binding) (at 7.7 µM) of 322%.

Under “at 7.7 µM”, `Cc1nc(N2CCN(S(=O)(=O)c3ccccc3C#N)CC2)c2c(-c3ccccc3)csc2n1` came in with a double positive events of 25% and a percent response (vesicle binding) of 204%. In addition, the double positive events under setting [1] stood at 22.6%.

For the compound `Cc1c(OCC(=O)NCc2ccccn2)ccc2c(-c3ccccc3)cc(=O)oc12`, where the note is “at 7.7 µM”, the double positive events amounted to 7.2% and the percent response (vesicle binding) turned out to be 130%. This compound displayed a double positive events under setting [1] of 29.8%.

Take `CNC(=O)c1cc(C(=O)c2ccc(F)cc2C(F)(F)F)c[nH]1`: where the note is “at 7.7 µM”, the double positive events came to 23.5% and the percent response (vesicle binding) came to 212%. Under setting [1], this compound registered a double positive events of 17%.

On to `C=CCN=C1S/C(=C\c2ccc(Cl)cc2)C(=O)N1CC=C`, for which, where the note is “at 7.7 µM”, the double positive events came out at 10.4% and the percent response (vesicle binding) was 251%. This compound yielded a double positive events under setting [1] of 16.4%.

On to `COc1ccc(Oc2ccc(N/C=C3\CCCC3=O)cc2)cc1`, for which the double positive events runs as follows: (at 7.7 µM) 10.4%; under setting [1], 8.8%. For the setting “at 7.7 µM”, this compound yielded a percent response (vesicle binding) of 429%.

Regarding `CC(C)=CC(=O)OCC(=O)NC1CCCc2ccccc21` (stereo not given), the double positive events is, setting by setting: (at 7.7 µM) 19.9%; under setting [1], 20.7%. Moreover, where the note is “at 7.7 µM”, the percent response (vesicle binding) worked out at 546%.

In turn, `CCOC(=O)CCNC(=O)Nc1ccc2nc(C)n(Cc3cccc(Cl)c3)c(=O)c2c1` registered a double positive events (at 7.7 µM) of 10% and a double positive events under setting [1] of 23.8%. The percent response (vesicle binding) (at 7.7 µM) turned out to be 287%.

Where the note is “at 7.7 µM”, `Cc1ccc(C(=O)Nc2ccc(N3CCN(S(C)(=O)=O)CC3)cc2)cc1` had a double positive events of 8.9% and a percent response (vesicle binding) of 297%. Besides, the double positive events under setting [1] stood at 25.8%.

Consider `COc1ccc(S(=O)(=O)N2CCCCC2)cc1NC(=O)c1cnc(C)cn1`, for which the double positive events (at 7.7 µM) was found to be 15.3% and the double positive events under setting [1] turned out to be 6.4%. Also, the percent response (vesicle binding) (at 7.7 µM) came out at 75.9%.

For `Cc1c(C(=O)NCc2ccco2)sc2nc(-c3ccccc3)cn12`, for the setting “at 7.7 µM”, the double positive events was determined as 11.5% and the percent response (vesicle binding) amounted to 204%. Also, the double positive events under setting [1] was 22.2%.

Turning to `COc1ccc(/C=C2\SC(=S)N(CCC(=O)N3CCOCC3)C2=O)cc1`, the double positive events is 8.6% (at 7.7 µM) and 22.8% under setting [1]. For the same compound, the percent response (vesicle binding) (at 7.7 µM) amounted to 156%.

As to `CN(C)CCNC(=O)C(=O)Nc1ccc2c(c1)N(S(=O)(=O)c1cccs1)CCC2`, the double positive events came to 11.6% (at 7.7 µM) and 31.8% under setting [1]. For the setting “at 7.7 µM”, this compound gave a percent response (vesicle binding) of 405%.

Where the note is “at 7.7 µM”, `Cn1c(=O)cc(SCC(=O)NCCC2=CCCCC2)c2ccccc21` came in with a double positive events of 11.1% and a percent response (vesicle binding) of 101%. Besides, the double positive events under setting [1] was determined as 31.2%.

Take `Cc1nn(Cc2ccc(Cl)cc2)c(C)c1N`: the double positive events was found to be 10.5% (at 7.7 µM) and 36.2% under setting [1]. Also, where the note is “at 7.7 µM”, the percent response (vesicle binding) was 440%.

For `Cc1nnnn1CC(=O)Nc1cccc([N+](=O)[O-])c1`, the double positive events runs as follows: (at 7.7 µM) 24.2%; under setting [1], 11.2%. The same compound returned a percent response (vesicle binding) (at 7.7 µM) of 356%.

Where the note is “at 7.7 µM”, `CN1CCN(c2nc(-c3ccccc3)ncc2S(C)(=O)=O)CC1` displayed a double positive events of 26.4% and a percent response (vesicle binding) of 104%. For the same compound, under setting [1], the double positive events came out at 13.9%.

Turning to `O=C(OCC(=O)N1CCN(C(=O)c2ccco2)CC1)c1ccccc1Cc1ccccc1`, for the setting “at 7.7 µM”, the double positive events amounted to 6.5% and the percent response (vesicle binding) stood at 106%. Besides, the double positive events under setting [1] was 29.4%.

For the setting “at 7.7 µM”, `CCC(C)NC(=O)c1cn(CC)c2ccc(S(=O)(=O)N(C)C)cc2c1=O` (stereo not given) displayed a double positive events of 32.9% and a percent response (vesicle binding) of 143%. Under setting [1], the double positive events was found to be 8.6%.

Where the note is “at 7.7 µM”, `Cc1ccc(S(=O)(=O)NC(CC(=O)NCC2CCCO2)c2ccccc2)cc1` (stereo not given) showed a double positive events of 22.3% and a percent response (vesicle binding) of 331%. Also, under setting [1], the double positive events stood at 27.9%.

Under “at 7.7 µM”, `O=C(Cc1ccccc1)Nc1cc2c(cc1Cl)OCCCO2` gave a double positive events of 11.1% and a percent response (vesicle binding) of 210%. This compound also returned a double positive events under setting [1] of 14.3%.

Where the note is “at 7.7 µM”, `Cc1ccc(OCCOC(=O)c2cc(S(=O)(=O)N3CCCCC3)ccc2N2CCOCC2)cc1` gave a double positive events of 12.7% and a percent response (vesicle binding) of 569%. For the same compound, the double positive events under setting [1] was found to be 26.3%.

Consider `O=S(=O)(c1ccc(F)cc1)N1CCC(O)(c2ccc3c(c2)OCO3)CC1`, for which the double positive events is, setting by setting: (at 7.7 µM) 34.6%; under setting [1], 22.2%. The compound also returned a percent response (vesicle binding) (at 7.7 µM) of 482%.

On to `CCOc1ccc(-c2cc(CCCC(=O)NCCc3ccccc3)no2)cc1`, for which the double positive events was 11% (at 7.7 µM) and 24.5% under setting [1]. Where the note is “at 7.7 µM”, this compound registered a percent response (vesicle binding) of 182%.

Where the note is “at 7.7 µM”, `COc1nc(Nc2ccc(C(C)C)cc2)nc(OC)n1` returned a double positive events of 12% and a percent response (vesicle binding) of 234%. This compound registered a double positive events under setting [1] of 26.9%.

Where the note is “at 7.7 µM”, `COc1ccc(C(=O)C2CCN(C(=S)NCCc3ccc(OC)c(OC)c3)CC2)cc1` gave a double positive events of 12.3% and a percent response (vesicle binding) of 215%. This compound also registered a double positive events under setting [1] of 26.6%.

For the setting “at 7.7 µM”, `O=C(Nc1ccc2nc(-c3ccco3)c(-c3ccco3)nc2c1)N1CCN(c2ccccn2)CC1` gave a double positive events of 9% and a percent response (vesicle binding) of 470%. This compound gave a double positive events under setting [1] of 10.2%.

Take `COc1ccc(C(=O)Nc2ccccc2C(=O)O)cc1Cl`: the double positive events is, setting by setting: (at 7.7 µM) 9.6%; under setting [1], 13.5%. For the same compound, the percent response (vesicle binding) (at 7.7 µM) was determined as 158%.

In the case of `COc1ccc(Nc2nc(C)cc(C)c2C#N)c(OC)c1`, the double positive events (at 7.7 µM) worked out at 6% and the double positive events under setting [1] is 20%. Also, the percent response (vesicle binding) (at 7.7 µM) came out at 103%.

`Cc1ccc(NC(=O)CC2OC(=O)c3ccccc32)cc1S(=O)(=O)N1CCOCC1` (stereo not given): the double positive events is, setting by setting: (at 7.7 µM) 12%; under setting [1], 25.5%. The percent response (vesicle binding) (at 7.7 µM) is 425%.

`CCOC(=O)c1ccc(CNC(=O)Cn2nnc(-c3ccccc3F)n2)o1`: for the setting “at 7.7 µM”, the double positive events worked out at 8.9% and the percent response (vesicle binding) was found to be 338%. The compound also had a double positive events under setting [1] of 19.8%.

For the setting “at 7.7 µM”, `CSCCC(NS(=O)(=O)c1cccc(C(F)(F)F)c1)C(=O)N(C)Cc1ccc2c(c1)OCCO2` (stereo not given) displayed a double positive events of 13% and a percent response (vesicle binding) of 548%. Further, the double positive events under setting [1] turned out to be 30.3%.

In the case of `COc1ccc([C@H](NC(=O)OC(C)(C)C)C(=O)OC(C)(C)C)cc1`, where the note is “at 7.7 µM”, the double positive events stood at 33.8% and the percent response (vesicle binding) amounted to 180%. The compound also came in with a double positive events under setting [1] of 18.2%.

Under “at 7.7 µM”, `CCC(C)S(=O)(=O)c1snnc1C` (stereo not given) yielded a double positive events of 5.3% and a percent response (vesicle binding) of 208%. Further, the double positive events under setting [1] came to 5.6%.

Regarding `Cc1ccc(NC(=O)c2cc(-c3ccccc3)nn2-c2ccccc2)cc1`, for the setting “at 7.7 µM”, the double positive events was 10.4% and the percent response (vesicle binding) was 404%. The double positive events under setting [1] was 12.6%.

Under “at 7.7 µM”, `O=C(CO)N/N=C/c1cccc(Cl)c1Cl` showed a double positive events of 23% and a percent response (vesicle binding) of 300%. In addition, the double positive events under setting [1] came to 12%.
